Drawing on PMC11796372, this text covers binding for four molecules.

No constants are given. Whether binding was seen depends on the method and setting. Some binding calls cover weakened binding; strength is not graded here. For some assays here: Where a sequence is shown, tags or fusion partners need not be part of it.

The target in assay [1] is T1, H-NS (E. coli chromosomal nucleoid-structuring protein), full-length, low-copy two-hybrid fusion (E. coli (BW25113, K12)) (UniProt P0ACF8).
T1 sequence: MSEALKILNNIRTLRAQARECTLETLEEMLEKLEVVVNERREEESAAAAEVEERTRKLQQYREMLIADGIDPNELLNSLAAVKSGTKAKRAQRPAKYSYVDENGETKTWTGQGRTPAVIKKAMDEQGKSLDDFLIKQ
The assay is described as follows: two-hybrid.

In assay [2] the target is T2, StpA (E. coli paralog of H-NS) (E. coli (BW25113, K12)) (UniProt P0ACG1).
T2 sequence: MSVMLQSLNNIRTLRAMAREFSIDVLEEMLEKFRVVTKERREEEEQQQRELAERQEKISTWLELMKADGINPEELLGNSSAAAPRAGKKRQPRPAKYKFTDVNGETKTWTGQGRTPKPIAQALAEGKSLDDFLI
Briefly: two-hybrid; bacterial two-hybrid (split adenylate cyclase, T18 on high-copy pUT18/pUT18C, T25 on low-copy pKT25/pKNT25) in E. coli BTH101; overnight cultures spotted on LB agar with ampicillin, kanamycin, X-gal and IPTG; 30°C, 24 h or 48 h (pUT18C::hha, pUT18C::cnu); blue spot = interaction.

Assay [3] has as its target T3, H-NS (M1-G85), truncated H-NS lacking its DNA-binding domain (E. coli (BW25113, K12)) (UniProt P0ACF8).
T3 sequence: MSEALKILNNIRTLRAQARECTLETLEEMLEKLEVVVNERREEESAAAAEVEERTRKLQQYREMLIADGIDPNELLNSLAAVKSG
Described as above.

Assay [4] deals with T3, H-NS (M1-G85), truncated H-NS lacking its DNA-binding domain (E. coli (BW25113, K12)). Briefly: two-hybrid.

B1: Cnu (YdgT), paralog of Hha (protein, UniProt P64467 1-71)
chain: MTVQDYLLKFRKISSLESLEKLYDHLNYTLTDDQELINMYRAADHRRAELVSGGRLFDLGQVPKSVWHYVQ
Turning to B1, the binding result in assay [1], in assay [2] and in assay [3] was “binds” in each case.

B2: StpA (E. coli paralog of H-NS) (protein, UniProt P0ACG1 1-134)
chain: MSVMLQSLNNIRTLRAMAREFSIDVLEEMLEKFRVVTKERREEEEQQQRELAERQEKISTWLELMKADGINPEELLGNSSAAAPRAGKKRQPRPAKYKFTDVNGETKTWTGQGRTPKPIAQALAEGKSLDDFLI
Regarding B2, the binding entry in assay [1] and in assay [3] was “binds” in each case.

B3: Hha with the adenylate cyclase fragment fused to its N-terminus (protein, UniProt P0ACE3 1-72)
chain: MSEKPLTKTDYLMRLRRCQTIDTLERVIEKNKYELSDNELAVFYSAADHRLAELTMNKLYDKIPSSVWKFIR
B3: the binding entry in assay [1] and in assay [4] was “binds” throughout.

B4: Hha with the adenylate cyclase fragment fused to its C-terminus (protein, UniProt P0ACE3 1-72)
chain: MSEKPLTKTDYLMRLRRCQTIDTLERVIEKNKYELSDNELAVFYSAADHRLAELTMNKLYDKIPSSVWKFIR
Regarding B4, the binding entry in assay [4] was “binds”.
